Results are given in words; binding and its absence hold for the method and conditions named. Binding seen in cells or lysates may run through a third protein. A result given as binding can be weak or reduced; the word gives no strength. Sequences can lack the tags named with a protein.
Molecular target: GST-mTET2 (Mus musculus)
Assay: pull-down; GST fusion proteins pre-bound to glutathione-Sepharose beads (50 mM Tris HCl pH 8.0, 150 mM NaCl, 5 mM EDTA, 1% Triton X-100, 1 mM DTT), incubated 1 h at 4 °C with whole cell lysate of transfected COS-1 cells; washed 3 x in KAc interaction buffer; immunoblot; only the target purified

B1: FOXA1-V5 (protein, UniProt P55317-1 1-472)
chain: MLGTVKMEGHETSDWNSYYADTQEAYSSVPVSNMNSGLGSMNSMNTYMTMNTMTTSGNMTPASFNMSYANPGLGAGLSPGAVAGMPGGSAGAMNSMTAAGVTAMGTALSPSGMGAMGAQQAASMNGLGPYAAAMNPCMSPMAYAPSNLGRSRAGGGGDAKTFKRSYPHAKPPYSYISLITMAIQQAPSKMLTLSEIYQWIMDLFPYYRQNQQRWQNSIRHSLSFNDCFVKVARSPDKPGKGSYWTLHPDSGNMFENGCYLRRQKRFKCEKQPGAGGGGGSGSGGSGAKGGPESRKDPSGASNPSADSPLHRGVHGKTGQLEGAPAPGPAASPQTLDHSGATATGGASELKTPASSTAPPISSGPGALASVPASHPAHGLAPHESQLHLKGDPHYSFNHPFSINNLMSSSEQQHKLDFKAYEQALQYSPYGSTLPASLPLGSASVTTRSPIEPSALEPAYYQGVYSRPVLNTS
With B1 the binding was “binds”.

Reference: paper PMC9016969
